Laboratory results taken from article PMC4139307, “Transforming Growth Factor-β1 Signaling Represses Testicular Steroidogenesis through Cross-Talk with Orphan Nuclear Receptor Nur77”.
These are yes or no findings as the source states them, for the method shown. In cells and extracts the contact can be indirect. Some results given as binding are weak or reduced against the parent protein; the word gives no strength.

Protein sequences, listed by entry. Tags and fused reporters are not part of them. Lines headed by an entry give the natural chain unless they say otherwise; changes in a name come on top. Residues count along the entry.
UniProt P12813: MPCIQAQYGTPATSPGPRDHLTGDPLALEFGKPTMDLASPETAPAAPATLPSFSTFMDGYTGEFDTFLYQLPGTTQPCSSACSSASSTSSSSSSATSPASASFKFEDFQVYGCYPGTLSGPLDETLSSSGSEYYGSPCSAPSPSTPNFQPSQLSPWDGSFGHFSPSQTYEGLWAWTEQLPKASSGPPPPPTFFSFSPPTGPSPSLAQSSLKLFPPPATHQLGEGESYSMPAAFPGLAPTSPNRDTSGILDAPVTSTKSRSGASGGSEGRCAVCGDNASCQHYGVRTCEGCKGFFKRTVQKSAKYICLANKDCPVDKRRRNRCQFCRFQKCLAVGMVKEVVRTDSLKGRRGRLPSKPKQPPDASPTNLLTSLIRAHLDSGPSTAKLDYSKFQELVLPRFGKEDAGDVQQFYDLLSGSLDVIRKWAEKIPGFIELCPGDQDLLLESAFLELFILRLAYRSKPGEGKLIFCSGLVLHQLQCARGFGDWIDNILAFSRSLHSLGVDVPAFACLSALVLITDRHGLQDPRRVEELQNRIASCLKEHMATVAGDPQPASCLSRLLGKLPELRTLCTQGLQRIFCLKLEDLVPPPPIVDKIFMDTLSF
UniProt P84022, residues 10-136: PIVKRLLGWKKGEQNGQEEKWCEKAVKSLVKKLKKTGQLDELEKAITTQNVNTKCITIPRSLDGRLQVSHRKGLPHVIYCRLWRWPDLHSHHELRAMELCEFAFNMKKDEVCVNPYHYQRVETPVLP

Biological target: GST-Nur77 fusion protein (full-length Nur77) (UniProt P12813)
Assay: pull-down; GST fusion proteins immobilised on glutathione-Sepharose-4B beads, incubated with [35S] methionine-labeled in vitro translated proteins in GST binding buffer (20 mM Tris pH 7.9, 150 mM NaCl, 10% glycerol, 0.05% NP-40, 5 mM MgCl2, 0.5 mM EDTA, 1 mM dithiothreitol, 1.5% BSA) overnight at 4°C; SDS-PAGE and autoradiography; only the target purified

binding: binds
Substance: [35S] methionine-labeled Smad3 MH1 mutant (from UniProt P84022 10-136) (domain or fragment)
